Changes are numbered by the printed parent chain. For part of these data: Weaker means in comparison with the reference protein, sequence or condition of that experiment. Tags and fusion partners may be left off the protein sequences shown. For part of these data: For at least one entry, the source does not settle the construct or the ends of the probe. For part of these data: At least one verdict rests on a figure or table, not on a statement of the authors.
Experiments:
[1] = target: T1, CadC1-107 (DBD) (Escherichia coli) (UniProt P23890); assay: EMSA; conditions: value only in figure, EMSA/NMR/ITC: 20 mM BisTris, 150 mM NaCl, pH 6.5, RT (NMR 10% D2O, 298 K; imino spectra 283 K), recombinant protein, residues 1-107, protein details: His6-thioredoxin removed by TEV
T1 sequence (looked up): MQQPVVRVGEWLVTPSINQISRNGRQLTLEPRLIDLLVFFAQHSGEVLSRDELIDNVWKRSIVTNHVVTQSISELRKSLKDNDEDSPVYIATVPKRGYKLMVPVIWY

[2] = target: T1, CadC1-107 (DBD) (Escherichia coli); assay: ITC; conditions: value only in figure; imino spectra 283 K); recombinant protein; residues 1-107; protein details: His6-thioredoxin removed by TEV
[3] = target: T2, CadC1-159 R96A (Escherichia coli) (UniProt P23890); assay: SPR; conditions: reduced binding; SPR: 10 mM HEPES pH 7.4, 150 mM NaCl, 3 mM EDTA, 0.05% P20, 25 C; recombinant protein; residues 1-159; protein details: His6-thioredoxin removed by TEV
T2 sequence (looked up): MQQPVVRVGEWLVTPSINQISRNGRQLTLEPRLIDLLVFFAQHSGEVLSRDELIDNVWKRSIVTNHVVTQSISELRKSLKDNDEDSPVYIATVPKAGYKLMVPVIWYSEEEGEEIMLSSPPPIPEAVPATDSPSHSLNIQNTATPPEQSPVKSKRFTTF

[4] = target: T3, CadC1-159 R50A (Escherichia coli) (UniProt P23890); assay: SPR; conditions: binding almost abolished; SPR: 10 mM HEPES pH 7.4, 150 mM NaCl, 3 mM EDTA, 0.05% P20, 25 C; recombinant protein; residues 1-159; protein details: His6-thioredoxin removed by TEV
T3 sequence (looked up): T2 sequence (looked up) with R50A, A96R

[5] = target: T4, CadC1-159 R76A (Escherichia coli) (UniProt P23890); assay: SPR; conditions: binding almost abolished; SPR: 10 mM HEPES pH 7.4, 150 mM NaCl, 3 mM EDTA, 0.05% P20, 25 C; recombinant protein; residues 1-159; protein details: His6-thioredoxin removed by TEV
T4 sequence (looked up): T2 sequence (looked up) with R76A, A96R

“TGATATCAACTTG (double strand) [Cad1C 13-mer]”: binds more weakly ([1]; slightly lower affinity than Cad1A/B).
“TTGTAAACATTAAATGTTTATCTTTTCATGATATCAACTTG (double strand) [Cad1 41-mer WT]”: binds [1]; binds [2].
“TTGTAAACATTAAATGTTTATCTTTTCATGATATCAACTTG (double strand) [Cad1 41-mer, biotinylated (SPR)]”: binds more weakly [3]; binds more weakly [4]; binds more weakly [5].

Reference: PMC5430869, “Structure-function analysis of the DNA-binding domain of a transmembrane transcriptional activator”
